Measured values: the supplement of paper PMC10849652
Some of the results follow.

Sequences of proteins named here, by UniProt entry; tags and fusion partners are left off. A change or cut given only in a name is not applied to a line headed by its entry.
UniProt Q5BKZ1: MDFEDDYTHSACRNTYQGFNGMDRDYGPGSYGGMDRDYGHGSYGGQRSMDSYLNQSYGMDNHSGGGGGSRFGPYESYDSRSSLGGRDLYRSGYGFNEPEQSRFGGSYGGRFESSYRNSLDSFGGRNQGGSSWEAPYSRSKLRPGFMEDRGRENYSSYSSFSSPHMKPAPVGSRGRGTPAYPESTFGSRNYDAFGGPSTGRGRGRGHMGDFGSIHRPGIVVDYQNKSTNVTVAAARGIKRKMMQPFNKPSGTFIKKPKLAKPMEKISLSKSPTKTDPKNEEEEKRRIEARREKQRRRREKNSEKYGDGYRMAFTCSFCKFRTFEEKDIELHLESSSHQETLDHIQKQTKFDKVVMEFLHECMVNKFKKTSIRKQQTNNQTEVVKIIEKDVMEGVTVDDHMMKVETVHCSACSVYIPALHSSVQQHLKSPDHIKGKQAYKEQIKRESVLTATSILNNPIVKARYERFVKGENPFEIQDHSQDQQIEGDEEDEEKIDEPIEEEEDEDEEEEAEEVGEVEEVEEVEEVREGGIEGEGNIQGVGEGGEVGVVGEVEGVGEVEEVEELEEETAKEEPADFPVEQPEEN
UniProt Q16587: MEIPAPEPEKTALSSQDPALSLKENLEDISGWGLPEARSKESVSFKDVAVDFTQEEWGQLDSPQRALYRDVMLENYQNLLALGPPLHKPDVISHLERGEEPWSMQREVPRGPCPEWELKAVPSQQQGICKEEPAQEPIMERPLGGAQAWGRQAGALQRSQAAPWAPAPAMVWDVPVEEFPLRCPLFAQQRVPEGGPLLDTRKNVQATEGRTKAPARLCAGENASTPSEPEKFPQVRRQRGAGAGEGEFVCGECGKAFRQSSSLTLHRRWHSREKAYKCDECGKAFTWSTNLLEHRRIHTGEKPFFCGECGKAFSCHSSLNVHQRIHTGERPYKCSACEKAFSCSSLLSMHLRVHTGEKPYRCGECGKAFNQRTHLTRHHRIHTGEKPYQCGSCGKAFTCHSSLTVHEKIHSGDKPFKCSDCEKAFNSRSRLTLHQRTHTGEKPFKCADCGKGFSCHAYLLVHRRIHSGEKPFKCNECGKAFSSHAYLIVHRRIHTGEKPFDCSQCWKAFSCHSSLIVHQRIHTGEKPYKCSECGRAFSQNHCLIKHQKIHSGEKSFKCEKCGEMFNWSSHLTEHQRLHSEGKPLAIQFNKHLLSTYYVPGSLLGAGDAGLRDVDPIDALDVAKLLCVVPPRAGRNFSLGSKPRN
UniProt O43257, whole entry, looked up: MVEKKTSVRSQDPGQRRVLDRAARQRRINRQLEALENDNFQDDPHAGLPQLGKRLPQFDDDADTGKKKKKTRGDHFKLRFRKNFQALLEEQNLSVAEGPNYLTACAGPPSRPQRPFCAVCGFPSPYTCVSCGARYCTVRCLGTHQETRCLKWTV
UniProt Q6WRX3: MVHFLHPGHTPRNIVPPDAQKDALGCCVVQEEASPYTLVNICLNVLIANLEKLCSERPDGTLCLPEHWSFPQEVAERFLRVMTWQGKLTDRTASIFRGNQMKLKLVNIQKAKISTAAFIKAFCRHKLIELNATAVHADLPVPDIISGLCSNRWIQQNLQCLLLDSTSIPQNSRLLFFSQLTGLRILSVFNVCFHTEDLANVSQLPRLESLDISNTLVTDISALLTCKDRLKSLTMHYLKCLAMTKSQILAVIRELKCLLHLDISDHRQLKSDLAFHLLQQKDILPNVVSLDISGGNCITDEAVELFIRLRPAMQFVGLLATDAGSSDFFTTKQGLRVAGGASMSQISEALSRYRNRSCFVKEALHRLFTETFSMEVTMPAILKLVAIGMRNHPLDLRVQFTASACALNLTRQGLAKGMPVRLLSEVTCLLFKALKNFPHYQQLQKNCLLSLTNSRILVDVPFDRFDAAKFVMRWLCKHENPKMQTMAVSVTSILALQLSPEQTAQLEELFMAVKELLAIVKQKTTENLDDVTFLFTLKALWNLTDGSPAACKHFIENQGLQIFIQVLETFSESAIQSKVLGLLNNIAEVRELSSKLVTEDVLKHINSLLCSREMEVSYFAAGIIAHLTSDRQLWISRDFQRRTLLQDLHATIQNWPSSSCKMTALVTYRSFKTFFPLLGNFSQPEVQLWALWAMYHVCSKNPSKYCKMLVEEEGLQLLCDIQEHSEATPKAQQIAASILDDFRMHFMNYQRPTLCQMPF
UniProt Q96K58: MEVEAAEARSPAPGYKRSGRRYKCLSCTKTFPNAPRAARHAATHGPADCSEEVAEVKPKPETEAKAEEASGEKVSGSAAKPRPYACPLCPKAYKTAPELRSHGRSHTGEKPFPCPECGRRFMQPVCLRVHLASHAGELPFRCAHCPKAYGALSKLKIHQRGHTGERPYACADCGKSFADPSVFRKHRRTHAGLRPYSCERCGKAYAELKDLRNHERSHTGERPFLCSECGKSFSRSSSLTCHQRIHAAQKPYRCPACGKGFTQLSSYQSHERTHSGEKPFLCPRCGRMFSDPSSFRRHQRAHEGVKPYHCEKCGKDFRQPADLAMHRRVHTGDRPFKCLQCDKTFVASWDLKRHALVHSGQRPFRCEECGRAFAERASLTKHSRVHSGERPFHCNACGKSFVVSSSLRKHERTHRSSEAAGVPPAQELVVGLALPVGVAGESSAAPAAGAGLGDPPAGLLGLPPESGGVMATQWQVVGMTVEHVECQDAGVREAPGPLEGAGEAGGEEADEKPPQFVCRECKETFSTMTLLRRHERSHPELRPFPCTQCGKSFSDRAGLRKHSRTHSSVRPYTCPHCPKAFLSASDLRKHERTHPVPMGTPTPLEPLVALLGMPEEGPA
UniProt Q96BR6: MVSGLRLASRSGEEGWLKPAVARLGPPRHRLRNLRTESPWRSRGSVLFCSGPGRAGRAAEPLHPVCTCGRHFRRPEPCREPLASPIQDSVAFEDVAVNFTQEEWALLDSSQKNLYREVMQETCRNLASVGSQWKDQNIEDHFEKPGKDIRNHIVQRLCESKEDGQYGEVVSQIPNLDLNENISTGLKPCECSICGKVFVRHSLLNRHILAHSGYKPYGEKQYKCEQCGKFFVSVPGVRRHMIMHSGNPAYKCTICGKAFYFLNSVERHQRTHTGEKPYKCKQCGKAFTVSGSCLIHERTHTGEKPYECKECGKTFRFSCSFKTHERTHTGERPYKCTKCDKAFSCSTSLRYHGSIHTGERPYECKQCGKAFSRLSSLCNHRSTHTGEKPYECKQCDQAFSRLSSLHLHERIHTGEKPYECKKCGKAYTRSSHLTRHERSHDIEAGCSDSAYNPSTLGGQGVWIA
UniProt P17098: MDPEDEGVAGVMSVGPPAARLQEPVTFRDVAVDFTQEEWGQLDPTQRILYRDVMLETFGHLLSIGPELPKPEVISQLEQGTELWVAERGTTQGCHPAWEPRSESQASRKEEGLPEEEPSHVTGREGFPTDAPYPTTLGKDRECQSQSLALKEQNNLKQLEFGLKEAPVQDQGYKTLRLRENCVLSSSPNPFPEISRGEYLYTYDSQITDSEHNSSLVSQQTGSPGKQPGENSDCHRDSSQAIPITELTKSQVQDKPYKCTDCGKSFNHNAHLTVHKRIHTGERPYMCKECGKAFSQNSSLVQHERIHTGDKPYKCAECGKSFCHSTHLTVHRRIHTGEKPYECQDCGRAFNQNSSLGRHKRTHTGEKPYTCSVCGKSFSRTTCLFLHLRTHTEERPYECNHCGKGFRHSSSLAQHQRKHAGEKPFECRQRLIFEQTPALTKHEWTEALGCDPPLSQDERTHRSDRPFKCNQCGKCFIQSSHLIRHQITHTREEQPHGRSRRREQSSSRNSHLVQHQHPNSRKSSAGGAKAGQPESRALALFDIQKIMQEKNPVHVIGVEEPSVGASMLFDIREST
UniProt O75467: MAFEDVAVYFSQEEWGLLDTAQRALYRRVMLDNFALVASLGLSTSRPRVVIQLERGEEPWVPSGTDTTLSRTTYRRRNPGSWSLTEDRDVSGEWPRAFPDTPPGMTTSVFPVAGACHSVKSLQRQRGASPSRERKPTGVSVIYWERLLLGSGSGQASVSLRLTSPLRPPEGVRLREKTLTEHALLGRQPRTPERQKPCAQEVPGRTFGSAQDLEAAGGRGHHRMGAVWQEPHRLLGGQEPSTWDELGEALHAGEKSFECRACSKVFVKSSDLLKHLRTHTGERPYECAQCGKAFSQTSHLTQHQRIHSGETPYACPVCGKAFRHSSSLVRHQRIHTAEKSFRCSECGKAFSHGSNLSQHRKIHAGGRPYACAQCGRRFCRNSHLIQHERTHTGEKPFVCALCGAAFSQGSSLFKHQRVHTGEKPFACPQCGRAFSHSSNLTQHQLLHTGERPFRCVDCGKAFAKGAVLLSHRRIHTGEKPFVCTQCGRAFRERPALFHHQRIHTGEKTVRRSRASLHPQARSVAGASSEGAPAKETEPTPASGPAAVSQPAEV
UniProt Q6ZN55: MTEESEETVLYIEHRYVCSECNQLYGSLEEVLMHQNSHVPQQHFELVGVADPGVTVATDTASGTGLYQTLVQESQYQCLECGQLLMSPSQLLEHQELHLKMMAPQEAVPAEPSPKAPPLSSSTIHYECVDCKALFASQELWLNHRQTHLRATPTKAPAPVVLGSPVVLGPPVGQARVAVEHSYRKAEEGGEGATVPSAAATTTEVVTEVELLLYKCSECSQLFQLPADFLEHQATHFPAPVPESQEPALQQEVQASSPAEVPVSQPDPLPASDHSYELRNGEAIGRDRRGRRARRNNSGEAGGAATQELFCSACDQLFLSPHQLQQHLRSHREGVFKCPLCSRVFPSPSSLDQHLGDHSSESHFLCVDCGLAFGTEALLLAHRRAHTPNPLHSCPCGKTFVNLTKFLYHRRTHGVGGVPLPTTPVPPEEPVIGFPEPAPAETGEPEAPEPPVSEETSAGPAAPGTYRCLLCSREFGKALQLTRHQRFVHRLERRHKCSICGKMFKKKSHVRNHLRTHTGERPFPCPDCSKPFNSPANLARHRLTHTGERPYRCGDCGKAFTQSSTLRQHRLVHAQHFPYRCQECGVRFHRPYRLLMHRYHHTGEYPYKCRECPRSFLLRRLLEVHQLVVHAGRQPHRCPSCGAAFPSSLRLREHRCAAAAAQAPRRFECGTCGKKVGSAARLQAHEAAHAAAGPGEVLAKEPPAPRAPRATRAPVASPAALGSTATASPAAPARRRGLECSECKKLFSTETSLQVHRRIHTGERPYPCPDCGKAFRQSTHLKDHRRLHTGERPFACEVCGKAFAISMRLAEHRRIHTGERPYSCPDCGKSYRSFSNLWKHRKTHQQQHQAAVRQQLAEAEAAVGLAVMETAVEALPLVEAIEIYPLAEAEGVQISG
ZNF654, A0A1B0GWA0, UniProt A0A1B0GWA0, whole entry, looked up: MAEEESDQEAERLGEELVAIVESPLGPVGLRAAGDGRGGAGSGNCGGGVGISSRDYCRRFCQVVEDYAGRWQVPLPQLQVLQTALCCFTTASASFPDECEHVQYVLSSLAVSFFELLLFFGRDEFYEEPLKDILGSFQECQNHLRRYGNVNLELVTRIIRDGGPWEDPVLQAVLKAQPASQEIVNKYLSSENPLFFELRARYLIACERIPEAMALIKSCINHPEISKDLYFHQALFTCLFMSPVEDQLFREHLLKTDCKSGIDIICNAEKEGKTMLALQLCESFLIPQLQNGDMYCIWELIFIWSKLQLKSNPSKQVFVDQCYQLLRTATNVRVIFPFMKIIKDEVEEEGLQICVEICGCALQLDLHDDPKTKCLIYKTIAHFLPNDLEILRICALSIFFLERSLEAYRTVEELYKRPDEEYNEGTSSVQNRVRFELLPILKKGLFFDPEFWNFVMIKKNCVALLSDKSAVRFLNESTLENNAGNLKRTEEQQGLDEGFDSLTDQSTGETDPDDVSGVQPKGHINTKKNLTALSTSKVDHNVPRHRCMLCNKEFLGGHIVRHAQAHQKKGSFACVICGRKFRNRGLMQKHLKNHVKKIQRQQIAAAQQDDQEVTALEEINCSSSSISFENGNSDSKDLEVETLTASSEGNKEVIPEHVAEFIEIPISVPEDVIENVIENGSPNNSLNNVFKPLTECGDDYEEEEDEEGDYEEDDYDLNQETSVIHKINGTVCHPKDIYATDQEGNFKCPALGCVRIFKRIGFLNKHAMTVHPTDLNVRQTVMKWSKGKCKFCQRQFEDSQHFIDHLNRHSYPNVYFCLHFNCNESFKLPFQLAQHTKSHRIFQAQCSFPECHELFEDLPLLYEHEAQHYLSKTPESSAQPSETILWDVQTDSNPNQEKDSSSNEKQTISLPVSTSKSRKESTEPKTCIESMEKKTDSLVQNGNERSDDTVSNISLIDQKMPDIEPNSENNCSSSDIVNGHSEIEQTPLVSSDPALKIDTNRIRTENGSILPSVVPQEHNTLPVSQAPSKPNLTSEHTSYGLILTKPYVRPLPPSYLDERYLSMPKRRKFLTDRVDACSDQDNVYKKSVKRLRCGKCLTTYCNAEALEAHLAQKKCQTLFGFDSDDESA

Compound: COc1cc2ncnc(Nc3ccc(F)c(Cl)c3)c2cc1OCCCN1CCOCC1 [gefitinib]
Assay: log2 fold change, soluble protein after heating vs DMSO (PISA); higher = thermal stabilisation; K562 lysate, 10 uM; active = over 0.2 and 3.5 SD of the protein, either way, in both replicates (recomputed)
How it was run: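 To prepare the extract, K562 pellets were dounce-homogenised in PBS pH 7.4 with 1 mM MgCl2, giving crude material at 1 mg/mL protein. This was treated with 10 μM compound for 30 min, then heated in aliquots for 3 min over 48°C-58°C before pooling and addition of NP-40 to 0.5% at 4°C. Centrifugation at 21,000xg for 90 min left soluble protein in the supernatant, which TMTpro 16plex LC-MS/MS quantified with equalised channel sums. Results are log-two fold changes in thermal stability compared with solvent controls, from duplicates.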

log2 fold change, inactive:
ZNF639 (UniProt Q9UID6) 0.053
ZNF280B (UniProt Q86YH2) 0.091
ZNF326 (UniProt Q5BKZ1) 0.038
ZNF74 isoform 5 (UniProt Q16587) -0.208
ZNF687 (UniProt Q8N1G0) 0.039
ZNHIT1 (UniProt O43257) -0.009
ZYG11A (UniProt Q6WRX3) -0.029
ZNF668 isoform 2 (UniProt Q96K58) -0.166
ZNF669 (UniProt Q96BR6) 0.004
ZNF8 (UniProt P17098) 0.246
ZNF346 (UniProt Q9UL40) 0.046
ZNF324 (UniProt O75467) -0.129
ZNF384 (UniProt Q8TF68) -0.056
ZNF574 isoform 2 (UniProt Q6ZN55) 0.021
ZNF654, A0A1B0GWA0 0.111

4 successive records already listed:
log2 fold change, inactive:
ZNF8 (UniProt P17098) 0.246
ZNF346 (UniProt Q9UL40) 0.046
ZNF324 (UniProt O75467) -0.129
ZNF384 (UniProt Q8TF68) -0.056
